Data reported in US7332476B2, “Pyridyl substituted ketolide antibiotics” (Novartis AG, priority 2003, dated 2008).
Several values for one entry are separate records, joined by “and”; a condition that tells them apart may be missing. Equal values may be shown once. The name of at least one read-out is uncertain.

What was measured:
Experiment in all cases: MIC, broth microdilution (NCCLS)
Assay type in all cases: cell-based
[1] = test system: Haemophilus influenzae Hain_49247; settings: unit assumed
Method: (§1) Strains. The bacterial isolates listed in Table 4 were cultivated from −70° C. frozen stocks by two consecutive overnight passages (P1, P2) at 35° C. on 5% blood agar (Remel, Lenexa, Kans.). Chocolate agar (Remel) is used for Haemophilus influenzae. H. influenzae and Streptococcus pneumoniae are incubated in 5-10% CO2
(§2) Drug Stock Preparation. To determine the amount of solvent to be used to give the desired final concentration, the formula “weight obtained in mg/final concentration in mg/ml” will be used. It will give the amount of solvent in ml needed to be added to give the desired concentration. For example, if 2.5 mg/ml is the desired concentration and the weight of compound is 13.7 mg, then the amount of solvent to be added is […]. Methanol is used as the solvent to dissolve the test compounds. Further dilution of stock is done in sterile, deionized water. Drug stocks are kept frozen at −70° C., protected from light.
(§3) Susceptibility Testing. MICs are determined by the broth microdilution method in accordance with the NCCLS guidelines. In brief, organism suspensions are adjusted to a 0.5 McFarland standard to yield a final inoculum between 3×10^5 and 7×10^5 CFU/ml. Drug dilutions and inocula are made in sterile, cation adjusted Mueller-Hinton Broth (CAMHB) (Remel) for all but S. pneumoniae [CAMHB with 2-5% lysed horse blood (Remel)] and H. influenzae [Haemophilus Test Medium (Remel)]. An inoculum volume of 100 μl is added to wells containing 100 μl of broth with 2-fold serial dilutions of drug. All inoculated microdilution trays are incubated in ambient air at 35° C. for 18-24 hours, except for S. pneumoniae, and H. influenzae (both at 5-10% CO2).
(§4) Following appropriate incubation, the MIC is determined and the MIC is defined as the lowest concentration of the drug that prevented visible growth.
as §1, with “8” for “4”
(§5) Following appropriate incubation, the MIC is determined and the MIC is defined as the lowest concentration of the drug that prevented visible growth. […] Antibacterial activity of representative compounds of the invention were compared against telitromycin.

[2] = test system: Streptococcus pneumoniae Stpn_Erm S 4297; settings: in µg/mL (unit assumed)
Method: as §1, §2, §3, §4
as §1, with “8” for “4”
as §5

[3] = test system: Staphylococcus epidermidis Step_f50654; settings: in µg/mL (unit assumed)
Method: as §1, §2, §3, §4
as §1, with “8” for “4”
as §5

[4] = test system: Staphylococcus aureus Stau_29213; settings: in µg/mL (unit assumed)
Method: as §1, §2, §3, §4
as §1, with “8” for “4”
as §5

[5] = test system: Haemophilus influenzae Hain_953460299-3; settings: in µg/mL (unit assumed)
Method: as §1, with “8” for “4”
as §2, §3, §5

[6] = test system: Haemophilus influenzae Hain_960730503-3; settings: in µg/mL (unit assumed)
Method: as §1, with “8” for “4”
as §2, §3, §5

[7] = test system: Haemophilus influenzae Hain_960820544-3; settings: in µg/mL (unit assumed)
Method: as §1, with “8” for “4”
as §2, §3, §5

In the case of `C#C[C@]12OC(=O)N(CCCCn3cnc(-c4ccc(C)nc4)c3)[C@@H]1[C@@H](C)C(=O)[C@H](C)C[C@](C)(OC)[C@H](OC1O[C@H](C)C[C@H](N(C)C)[C@H]1O)[C@@H](C)C(=O)[C@@H](C)C(=O)O[C@@H]2CC` (stereo partly shown) [XXXIII], the MIC, strain ID H [1] is reported as 6.25 µg/mL and 3.13 µg/mL, the “MIC, strain ID Q” value [2] is reported as 0.4 and 0.2 and the “MIC, strain ID D” value [3] is reported as 0.2 and 0.1. For the same molecule, the “MIC, strain ID A” value [4] was 0.2 and 0.1, the “MIC, strain ID K” value [5] was 12.5 and 6.25 and the “MIC, strain ID I” value [6] was 12.5 and 6.25. For the same molecule, the “MIC, strain ID J” value [7] was 12.5 and 6.25.
